For assay [1], the target named is 3xFlag-PcrP overexpressed in P. aeruginosa ΔpcrP (P. aeruginosa PAO1) (UniProt Q9I040). The experiment in a line: affinity purification with mass spectrometry; 3xFlag-PcrP overexpressed in ΔpcrP grown in BMM8 (high Pi, 580 μM) or BMMH8 (low Pi, 50 μM) at 0 or 5 mM Ca2+; lysate (1 mg/ml) on ANTI-FLAG M2 magnetic beads, 2 h at 4°C, washed with 10 mM Tris-HCl pH 7.5; LC-MS/MS; ΔpcrP as negative control.

Assay [2] deals with 6xHis-PcrP overexpressed in P. aeruginosa ΔpcrP (P. aeruginosa PAO1) (UniProt Q9I040). The assay is described as follows: affinity purification with mass spectrometry; 6xHis-PcrP overexpressed in ΔpcrP grown in BMM8 at 0 or 5 mM Ca2+; lysate (1 mg/ml) on HisPur Ni-NTA resin, 2 h at 4°C, washed with 10 mM Tris-HCl pH 7.5; LC-MS/MS; ΔpcrP as negative control.

Results are given in words; binding and its absence hold for the method and conditions named. Binding seen in cells or lysates may run through a third protein. A yes stands for co-enrichment or nearness to the bait. Other partners may have been found.

B1: PA3233 hypothetical protein (protein, UniProt Q9HZ07 1-599)
chain: MPDSFNFASPPFDQLRPHQRETLKQALSVGYYAPGETLLEAGSAVPGLFVLLKGVVEERGDDGRVFAQYAADDLFDVRGLFSGSSKHRYLAIEESIVYELPASCFHQLCGENPGFARFFQADLAAKRQLAQRDGQNLAEFILTRIAREHLLPALEVEASLSLGDAARLQLSHGADALLVRLERDGPELGIVTRTDLMSAHFRDGRSELEAIGPLAHGPLASVELGDFLFDAMILMTRQRIERVAVTEDGQVIGLLHLTQVLSLFSTHSHVLALRIARADDLGDLRRCAETLDTLIATLAGNGIRLRFIMQLVSALNEQLLERLFELLLPPTLRGRCCLLVMGSEGRGEQLLKTDQDNALVLADDLPQEQALAMMQRFSAALLEFGYPPCPGGVMASRPEWCKPLAAWQAELRGTLLEGKPEQLLRLSILADAWPVAGNLQLFEPLRWQLRGFADGGERWLADIAAAALQFDTPLTFLGQLKTQDARLDLKRGGIFPIVHGIRTLALREGLETRGTLARIEALKRHKVLEARLADDLSESFELFLQLRLTRQLAGQRDGRQQGLDVSGMSRHDRDMLRYGLHVVKKFKQSVARQFHLETR
On to B1, for which the binding entry in assay [1] and in assay [2] was “binds” throughout.

B2: PA3374 conserved hypothetical protein (protein, UniProt Q9HYM7 1-387)
chain: MSSERVLSNARVVSAERVFVGSVLLRDGLIAAVDEGRSHLAGAEDLGGDYLLPGLVELHTDNLEKHMTPRPGVDWPSASAVLAHDAQIVSAGITTVFDALSIGDVNPKGKRMQQLPKMLEAIGEAAASGDARADHRLHLRCEVSHPQTLEVFRELVEHPLVQLVSVMDHAPGQRQFARLEKYREYYQGKYHLSDAEMDAFIVEQVANSERYSDAARAAIVDVCQGRGLSVASHDDATLAHVRESAGYGMAIAEFPTTVEAARASHEHGLQVLMGAPNVVRGGSHSGNVAAAQLAGIGVLDILSSDYYPASLLHAALLLAGEHSEYDAIRYDLPRAVAMVSRTPALAAGLTDRGEIRVGLRADLLQARALGNNQPVVRQVWRGGQRVF
Turning to B2, the binding entry in assay [1] and in assay [2] was “binds” throughout.

B3: PA3518 hypothetical protein (protein, UniProt Q9HY91 1-328)
chain: MNTRNFSLPQLQNLPIEEARIVADALAVHATSRQIDSAASKLAALAEAGLKGDRQAYAAYQQLLYVLSLSDDVATAQTRRWLARAIYRVEERFMPAADLSRALSEEDFQKRLEQEIAAQSRERHPMSQYVFSGSASRAQLQVFLRHQWFRTFRLYRDAADLLVNLTDVDEAAALARYLYGELGEEDEKGSHPRLLAKLLEAIGLEADFQAVSTMPEEIAYLNNRARAFRHAEVGWGLAVFYITELVVPGNHEKLYRALLQAGLSEDQAEYYKVHISLVPPRAKREWQLIARRIPDVQFQNAFLTSLSQHFRVERAYYDAIWEEMQSVK
Turning to B3, the binding result in assay [1] and in assay [2] was “binds” each time.

B4: PA0805 hypothetical protein (protein, UniProt Q9I5D3 1-75)
chain: MSIQHRTQDAIRTLTAAFAPFDCLIQATRKGNFSFTIVDQHGVACHSERLYPEQYDDSGKMEEVINRVRKKTLAA
Take B4: the binding entry in assay [1] and in assay [2] was “binds” each time.

B5: PA5475 hypothetical protein (protein, UniProt Q9HT95 1-186)
chain: MSNVQNASRSSAFAAVEGDHWVESLDDGRHVLIRPLREEDRERERQFINRLSPATRHFRFLGEIKEASPALLDQLMDIDYQQSMAFVALVHEDGELREVGISRYAACCEEGQCECAVTIADDYQGLGLDAVLMRHLIDVARRNGFRQMYSVDSAANRAMRDLCCALGFVGQRDPDDSTQVIHRLAL
As for B5, the binding result in assay [1] and in assay [2] was “binds” each time.

B6: PA1218 hypothetical protein (protein, UniProt Q9I4C0 1-292)
chain: MKHYRQVVSPQLRQQALDWILAAAQRPDPALEPEFDIADDERREAKKVRNLHRHDPLFWDDWFARSGLDALVRDHLRKPRLLRHAAFIKRHADESYIPLHQDIALWEKRYESAQTFWVALTPSRNDNGGMFYYPDDRTIFPHEFDLAYPMFKCIDLQANGISREQLVDAELDAGDVLVWPARTAHGSHNNRSGQLRIGMPIVFVEDDEFHQLNREDSMKTWIASNLKSVFPDEAITEDNLDHYLPQLCDYSLKMVTFLARFSRQFGHAPKIHDFIREPRLATLSASDAGARR
As for B6, the binding entry in assay [1] and in assay [2] was “binds” throughout.

B7: PA1545 hypothetical protein (protein, UniProt Q04628 1-155)
chain: MLTLSGWITTQVPPSSRAAADAKAARTGTAEQAEDPAAGTDAADQHVQLSQAGRELAATMGVPVEEEDEDIPQELRPMVKMIRELKKKIEEKLRELQEAMRSSDPGAKEARVPELQKELQQLNSALQTATAAMASAIKEMGISDPALIMKVMGSR
On to B7, for which the binding entry in assay [1] and in assay [2] was “binds” each time.

B8: PA5457 methyltransferase (protein, UniProt Q9HTB3 1-287)
chain: MIRALLQRWRSRPAAASEPVSPRMCGLRDAVLDGWFRSETGELLAGFAIGAQDTLLDLGCGEGVATLFAARQGASVIFTDSEEDKVRSLAQQVEAVARRPFTGLVSDSDPLPLRDACADKLVCMEVLEHVANPARVMAELVRLGRPGAQYLLSVPDPVGEHLQQGIAPADYFRAPNHIHIFSRDDFARLVQDAGLVIEHRQASGFFWVMGMIFFWASERAAGRELGGAVRDRIQPPYPALMEDWARLWENLLARPDGLEIKHLLDHFMPKSQVIIARKPLDPGSSRT
On to B8, for which the binding entry in assay [1] and in assay [2] was “binds” each time.

B9: PA4567 50S ribosomal protein L27 (protein, UniProt Q9HVL7 1-85)
chain: MAHKKAGGSTRNGRDSESKRLGVKLFGGQAVKAGNILVRQRGTKFHAGYGVGLGKDHTLFAKVDGVVKFETKGAFGRKYVSIVAA
On to B9, for which the binding result in assay [1] and in assay [2] was “binds” each time.

B10: PA5269 hypothetical protein (protein, UniProt Q9HTT1 1-91)
chain: MSEQDDNQEDGFAEEKLIQAIENQIESENPPAARAVFNKLTLVGYERDEALGMMAYVLAHEINAMLAADRAFDSAGYEHALRALPTLPDDE
Take B10: the binding result in assay [1] and in assay [2] was “binds” in each case.

(Values after publication doi:10.1101/2025.05.13.653872.)
